The supplement of paper PMC7666118
Some of the results follow.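 How the source made its calls: active = dose-dependent thermal stabilisation significant by F-test of dose-response against flat model at 10% FDR; inactive = not significant.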

The chains behind the UniProt entries cited, without tags or fusion partners. Where a name states a change or a piece, a line headed by the entry shows the natural chain unless it says otherwise.
UniProt O43167: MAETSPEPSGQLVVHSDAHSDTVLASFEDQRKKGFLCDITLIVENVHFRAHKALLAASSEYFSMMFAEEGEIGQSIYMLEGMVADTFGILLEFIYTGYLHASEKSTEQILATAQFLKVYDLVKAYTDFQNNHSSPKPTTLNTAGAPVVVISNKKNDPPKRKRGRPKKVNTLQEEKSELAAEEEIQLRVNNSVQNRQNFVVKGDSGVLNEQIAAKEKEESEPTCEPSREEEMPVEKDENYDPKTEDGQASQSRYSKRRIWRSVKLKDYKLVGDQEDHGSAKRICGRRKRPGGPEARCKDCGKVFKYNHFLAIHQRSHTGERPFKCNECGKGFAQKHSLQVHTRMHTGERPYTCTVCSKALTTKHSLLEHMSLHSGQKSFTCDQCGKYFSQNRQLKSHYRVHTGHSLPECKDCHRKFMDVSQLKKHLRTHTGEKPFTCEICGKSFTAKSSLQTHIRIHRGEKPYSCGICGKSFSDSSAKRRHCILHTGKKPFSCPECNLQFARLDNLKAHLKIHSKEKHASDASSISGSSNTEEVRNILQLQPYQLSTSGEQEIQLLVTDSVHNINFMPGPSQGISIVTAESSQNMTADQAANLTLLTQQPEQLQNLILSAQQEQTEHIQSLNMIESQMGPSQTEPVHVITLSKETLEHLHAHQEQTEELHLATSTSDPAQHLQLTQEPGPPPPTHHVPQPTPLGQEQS
UniProt Q9P253: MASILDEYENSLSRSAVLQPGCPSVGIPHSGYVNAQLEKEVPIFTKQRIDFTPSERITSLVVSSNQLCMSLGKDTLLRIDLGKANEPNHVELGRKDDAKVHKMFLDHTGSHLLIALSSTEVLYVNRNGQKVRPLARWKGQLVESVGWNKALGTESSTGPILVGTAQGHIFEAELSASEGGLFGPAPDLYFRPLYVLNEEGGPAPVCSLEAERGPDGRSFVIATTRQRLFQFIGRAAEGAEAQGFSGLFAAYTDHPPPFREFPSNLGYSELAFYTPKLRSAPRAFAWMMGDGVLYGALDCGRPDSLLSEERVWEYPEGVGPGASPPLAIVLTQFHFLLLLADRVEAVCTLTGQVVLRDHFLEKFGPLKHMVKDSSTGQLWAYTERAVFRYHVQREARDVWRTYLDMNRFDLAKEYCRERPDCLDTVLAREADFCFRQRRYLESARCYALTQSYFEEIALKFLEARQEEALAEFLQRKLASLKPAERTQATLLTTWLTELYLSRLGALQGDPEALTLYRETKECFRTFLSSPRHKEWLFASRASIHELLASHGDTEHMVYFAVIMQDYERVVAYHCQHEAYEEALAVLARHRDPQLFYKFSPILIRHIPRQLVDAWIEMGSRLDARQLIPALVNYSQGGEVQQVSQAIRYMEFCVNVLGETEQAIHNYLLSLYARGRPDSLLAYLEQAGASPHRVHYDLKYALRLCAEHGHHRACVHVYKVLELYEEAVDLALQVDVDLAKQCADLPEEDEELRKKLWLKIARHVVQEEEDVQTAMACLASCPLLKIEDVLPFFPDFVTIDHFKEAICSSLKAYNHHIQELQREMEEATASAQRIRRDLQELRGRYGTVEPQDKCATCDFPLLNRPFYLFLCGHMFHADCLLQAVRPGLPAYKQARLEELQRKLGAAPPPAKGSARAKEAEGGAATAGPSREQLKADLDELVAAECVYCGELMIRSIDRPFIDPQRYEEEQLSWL
UniProt O75191: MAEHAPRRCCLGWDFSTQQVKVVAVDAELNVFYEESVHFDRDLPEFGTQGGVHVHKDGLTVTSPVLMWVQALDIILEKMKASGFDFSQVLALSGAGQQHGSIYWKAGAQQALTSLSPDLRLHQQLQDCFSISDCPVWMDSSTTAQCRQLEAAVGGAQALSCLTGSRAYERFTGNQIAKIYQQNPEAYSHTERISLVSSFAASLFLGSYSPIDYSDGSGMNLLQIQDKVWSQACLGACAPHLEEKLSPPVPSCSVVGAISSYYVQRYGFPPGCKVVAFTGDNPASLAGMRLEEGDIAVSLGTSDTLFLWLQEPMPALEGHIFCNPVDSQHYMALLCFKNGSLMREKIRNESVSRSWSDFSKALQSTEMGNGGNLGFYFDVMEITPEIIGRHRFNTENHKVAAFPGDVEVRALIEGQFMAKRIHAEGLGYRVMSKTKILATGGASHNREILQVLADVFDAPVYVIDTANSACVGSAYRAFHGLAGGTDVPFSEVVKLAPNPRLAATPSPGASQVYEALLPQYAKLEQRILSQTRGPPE
UniProt Q5JSH3: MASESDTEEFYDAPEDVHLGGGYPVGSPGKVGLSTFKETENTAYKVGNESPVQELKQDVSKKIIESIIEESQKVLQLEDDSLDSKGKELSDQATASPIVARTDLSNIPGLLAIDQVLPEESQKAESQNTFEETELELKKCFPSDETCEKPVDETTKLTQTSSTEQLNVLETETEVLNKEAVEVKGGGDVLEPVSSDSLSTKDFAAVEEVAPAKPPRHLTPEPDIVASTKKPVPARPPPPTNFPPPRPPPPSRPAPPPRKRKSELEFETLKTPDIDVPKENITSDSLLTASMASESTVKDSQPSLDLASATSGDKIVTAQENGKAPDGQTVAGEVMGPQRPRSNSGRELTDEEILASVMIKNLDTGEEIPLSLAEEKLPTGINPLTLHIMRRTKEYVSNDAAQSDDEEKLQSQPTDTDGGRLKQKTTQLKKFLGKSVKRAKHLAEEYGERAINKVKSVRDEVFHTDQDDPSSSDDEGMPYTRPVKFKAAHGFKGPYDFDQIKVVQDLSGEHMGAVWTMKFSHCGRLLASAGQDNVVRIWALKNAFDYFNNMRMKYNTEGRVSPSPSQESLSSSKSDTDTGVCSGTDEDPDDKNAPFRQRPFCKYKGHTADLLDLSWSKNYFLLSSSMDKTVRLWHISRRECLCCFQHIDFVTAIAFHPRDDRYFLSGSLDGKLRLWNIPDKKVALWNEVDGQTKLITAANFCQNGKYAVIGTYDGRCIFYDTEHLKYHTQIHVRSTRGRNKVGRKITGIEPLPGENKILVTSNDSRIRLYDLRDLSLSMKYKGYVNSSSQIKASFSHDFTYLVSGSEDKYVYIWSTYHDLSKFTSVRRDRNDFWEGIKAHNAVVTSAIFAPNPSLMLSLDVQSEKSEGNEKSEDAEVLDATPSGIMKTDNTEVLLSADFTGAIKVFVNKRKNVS
UniProt Q9BRG1: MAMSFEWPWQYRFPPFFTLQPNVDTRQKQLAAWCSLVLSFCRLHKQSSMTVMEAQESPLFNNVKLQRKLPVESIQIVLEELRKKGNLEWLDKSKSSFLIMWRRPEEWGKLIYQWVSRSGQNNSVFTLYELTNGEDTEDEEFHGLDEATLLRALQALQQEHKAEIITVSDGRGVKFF
UniProt O60701: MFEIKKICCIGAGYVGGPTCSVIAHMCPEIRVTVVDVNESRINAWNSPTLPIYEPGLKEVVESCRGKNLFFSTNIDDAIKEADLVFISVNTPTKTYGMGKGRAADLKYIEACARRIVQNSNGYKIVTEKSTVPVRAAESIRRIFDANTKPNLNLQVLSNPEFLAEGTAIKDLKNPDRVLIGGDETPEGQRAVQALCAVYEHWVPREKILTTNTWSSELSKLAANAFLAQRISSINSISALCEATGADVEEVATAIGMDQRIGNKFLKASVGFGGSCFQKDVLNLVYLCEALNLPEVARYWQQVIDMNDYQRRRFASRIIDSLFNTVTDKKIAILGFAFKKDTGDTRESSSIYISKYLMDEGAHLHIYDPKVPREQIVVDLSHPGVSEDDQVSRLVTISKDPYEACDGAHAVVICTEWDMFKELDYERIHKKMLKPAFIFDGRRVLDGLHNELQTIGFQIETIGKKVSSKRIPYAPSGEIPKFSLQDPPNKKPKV
UniProt Q8TBZ3: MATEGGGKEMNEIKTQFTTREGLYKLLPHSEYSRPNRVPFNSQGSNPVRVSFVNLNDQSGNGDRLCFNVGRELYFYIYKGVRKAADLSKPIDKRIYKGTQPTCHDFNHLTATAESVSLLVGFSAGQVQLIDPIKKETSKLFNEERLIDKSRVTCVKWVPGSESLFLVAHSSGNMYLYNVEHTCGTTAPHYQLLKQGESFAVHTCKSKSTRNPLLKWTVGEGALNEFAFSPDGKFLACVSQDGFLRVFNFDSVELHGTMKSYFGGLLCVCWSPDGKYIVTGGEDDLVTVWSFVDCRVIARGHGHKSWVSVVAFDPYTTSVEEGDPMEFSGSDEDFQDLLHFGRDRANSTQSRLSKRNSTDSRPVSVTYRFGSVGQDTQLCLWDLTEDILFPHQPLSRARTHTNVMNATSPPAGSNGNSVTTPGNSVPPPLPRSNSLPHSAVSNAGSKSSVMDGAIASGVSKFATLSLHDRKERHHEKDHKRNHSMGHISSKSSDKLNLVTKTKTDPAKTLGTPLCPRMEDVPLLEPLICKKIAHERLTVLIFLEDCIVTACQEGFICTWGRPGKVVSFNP
UniProt Q8IWT0: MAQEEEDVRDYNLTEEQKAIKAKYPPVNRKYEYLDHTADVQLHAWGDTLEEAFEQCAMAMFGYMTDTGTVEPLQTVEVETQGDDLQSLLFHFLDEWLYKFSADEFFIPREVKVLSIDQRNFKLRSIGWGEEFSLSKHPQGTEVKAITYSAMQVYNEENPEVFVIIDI
UniProt P61086: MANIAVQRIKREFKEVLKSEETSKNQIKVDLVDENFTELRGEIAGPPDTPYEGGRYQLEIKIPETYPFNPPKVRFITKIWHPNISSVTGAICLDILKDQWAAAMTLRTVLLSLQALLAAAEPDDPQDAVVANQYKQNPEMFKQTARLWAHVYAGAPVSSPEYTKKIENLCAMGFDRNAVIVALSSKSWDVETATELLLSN
UniProt Q6NZY4: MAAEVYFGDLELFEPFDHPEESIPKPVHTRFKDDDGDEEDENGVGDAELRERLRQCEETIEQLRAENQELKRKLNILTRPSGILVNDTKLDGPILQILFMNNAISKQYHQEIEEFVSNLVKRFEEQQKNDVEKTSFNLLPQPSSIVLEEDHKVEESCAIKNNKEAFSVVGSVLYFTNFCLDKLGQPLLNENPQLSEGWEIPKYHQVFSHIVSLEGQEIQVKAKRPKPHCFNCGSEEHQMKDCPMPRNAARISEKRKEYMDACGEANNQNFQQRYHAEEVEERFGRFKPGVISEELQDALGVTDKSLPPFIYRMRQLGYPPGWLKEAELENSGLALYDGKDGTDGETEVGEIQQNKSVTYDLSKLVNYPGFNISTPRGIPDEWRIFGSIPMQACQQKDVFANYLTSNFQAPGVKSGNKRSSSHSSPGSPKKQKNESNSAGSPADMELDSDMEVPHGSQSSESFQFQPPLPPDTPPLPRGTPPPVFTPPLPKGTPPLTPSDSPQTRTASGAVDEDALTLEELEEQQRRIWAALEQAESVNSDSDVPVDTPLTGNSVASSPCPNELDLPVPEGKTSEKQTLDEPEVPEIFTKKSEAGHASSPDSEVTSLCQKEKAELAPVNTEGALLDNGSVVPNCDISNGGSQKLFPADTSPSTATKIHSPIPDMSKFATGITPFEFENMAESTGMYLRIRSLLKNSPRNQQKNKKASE
UniProt P50552: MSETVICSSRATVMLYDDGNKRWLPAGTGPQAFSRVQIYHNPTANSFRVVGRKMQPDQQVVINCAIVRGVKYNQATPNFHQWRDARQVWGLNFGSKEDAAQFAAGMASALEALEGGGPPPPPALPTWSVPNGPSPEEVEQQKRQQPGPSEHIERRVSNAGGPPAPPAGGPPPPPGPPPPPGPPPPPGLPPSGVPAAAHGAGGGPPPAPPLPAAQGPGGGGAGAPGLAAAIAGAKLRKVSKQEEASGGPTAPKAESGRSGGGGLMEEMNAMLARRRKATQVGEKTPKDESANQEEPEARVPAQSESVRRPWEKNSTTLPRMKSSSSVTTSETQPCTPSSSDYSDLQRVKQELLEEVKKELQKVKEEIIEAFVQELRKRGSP
UniProt Q7Z739: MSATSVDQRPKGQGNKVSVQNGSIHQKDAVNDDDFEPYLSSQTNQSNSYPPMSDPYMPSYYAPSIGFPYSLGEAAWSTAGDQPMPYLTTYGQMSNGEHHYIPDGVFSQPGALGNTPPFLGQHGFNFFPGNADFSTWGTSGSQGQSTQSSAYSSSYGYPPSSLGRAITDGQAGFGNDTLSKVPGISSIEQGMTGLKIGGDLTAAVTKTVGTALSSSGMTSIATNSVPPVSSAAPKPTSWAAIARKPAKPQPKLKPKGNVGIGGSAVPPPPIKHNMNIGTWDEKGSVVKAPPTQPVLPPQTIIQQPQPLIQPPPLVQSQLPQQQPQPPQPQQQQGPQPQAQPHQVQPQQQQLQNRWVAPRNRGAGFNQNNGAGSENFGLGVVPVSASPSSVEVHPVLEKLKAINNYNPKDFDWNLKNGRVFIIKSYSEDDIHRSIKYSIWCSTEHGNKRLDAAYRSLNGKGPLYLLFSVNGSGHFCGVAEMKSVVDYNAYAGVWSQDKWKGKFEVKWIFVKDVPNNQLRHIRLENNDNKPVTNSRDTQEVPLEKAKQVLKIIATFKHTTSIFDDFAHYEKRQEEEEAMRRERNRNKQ
UniProt O14933: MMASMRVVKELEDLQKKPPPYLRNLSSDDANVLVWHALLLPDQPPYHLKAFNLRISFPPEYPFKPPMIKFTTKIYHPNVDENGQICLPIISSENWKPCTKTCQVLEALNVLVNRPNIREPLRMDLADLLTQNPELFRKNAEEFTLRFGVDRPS

Compound: Nc1nc2c(ncn2[C@@H]2O[C@H](COP(=O)(O)OP(=O)(O)OP(=O)(O)O)[C@@H](O)[C@H]2O)c(=O)[nH]1
Assay: dose-dependent thermal stabilisation call (2D-TPP, DLPTP, 10% FDR) (binary (1 = stabilised)); higher = stabilised by the compound
Details: system: Jurkat gel-filtered lysate; concentration range 1-500 µM

Target	dose-dependent thermal stabilisation call
UBE2D2 (UniProt P62837)	inactive: 0
WASHC4 (UniProt Q2M389)	inactive: 0
ZBTB24 (UniProt O43167)	inactive: 0
VAT1 (UniProt Q99536)	inactive: 0
ZC3H15 (UniProt Q8WU90)	inactive: 0
VPS39 (UniProt Q96JC1)	inactive: 0
WDR92 (UniProt Q96MX6)	active: 1
UCHL3 (UniProt P15374)	inactive: 0
VPS18 (UniProt Q9P253)	inactive: 0
UTRN (UniProt P46939)	inactive: 0
XYLB (UniProt O75191)	inactive: 0
WDCP (UniProt Q9H6R7)	inactive: 0
WDR1 (UniProt O75083)	inactive: 0
WDR44 (UniProt Q5JSH3)	inactive: 0
VPS25 (UniProt Q9BRG1)	inactive: 0
UGDH (UniProt O60701)	active: 1
UNC119 (UniProt Q13432)	active: 1
WDR20 (UniProt Q8TBZ3)	inactive: 0

Target	dose-dependent thermal stabilisation call
WASL (UniProt O00401)	inactive: 0
VPS13A (UniProt Q96RL7)	inactive: 0
ZBED1 (UniProt O96006)	inactive: 0
ZBTB8OS (UniProt Q8IWT0)	active: 1
UBE2K (UniProt P61086)	active: 1
WASHC2C (UniProt Q9Y4E1)	inactive: 0
VPS8 (UniProt Q8N3P4)	inactive: 0
UBE2O (UniProt Q9C0C9)	inactive: 0
ZCCHC8 (UniProt Q6NZY4)	inactive: 0
ZC3HAV1L (UniProt Q96H79)	inactive: 0
USP15 (UniProt Q9Y4E8)	inactive: 0
UPF3A (UniProt Q9H1J1)	inactive: 0
VASP (UniProt P50552)	inactive: 0
YTHDF3 (UniProt Q7Z739)	inactive: 0
UBE2L6 (UniProt O14933)	inactive: 0
USP14 (UniProt P54578)	inactive: 0
WNK1 (UniProt Q9H4A3)	inactive: 0
WDHD1 (UniProt O75717)	inactive: 0

Look-ups from the entries so far:
For dose-dependent thermal stabilisation call, ZBTB8OS (UniProt Q8IWT0) has the entry active: 1
For dose-dependent thermal stabilisation call, ZBED1 (UniProt O96006) has the entry inactive: 0
